Converted amounts (≈) assume the structure as drawn.
System: HepG2
Assay: Cytotoxicity against human HepG2 cells assessed as cell viability after 48 hrs by neutral red-based assay
Conditions: HepG2, 48 h
Method in brief: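 Mammalian cell lines from ATCC: human hepatic carcinoma HepG2, pig kidney epithelial LLC-PK1, and African green monkey kidney Vero. Highest test concentration was 50 μg/mL, and doxorubicin was the positive control at up to 10 μg/mL. IC50 was taken as the concentration giving 50% growth inhibition of the mammalian cells.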

## COc1cccc2c1C(=O)c1c(O)c3c(c(O)c1C2=O)C[C@@](O)(C(=O)CO)C[C@@H]3O[C@H]1C[C@H](N)[C@H](O)[C@H](C)O1 [DOXORUBICIN]
  IC50: 0.4 µg/mL (≈ 0.736 µM)

From ChEMBL document CHEMBL3739408, “Antibacterial Prenylated Acylphloroglucinols from Psorothamnus fremontii” (J Nat Prod, 2015)
